Article PMC3940891, “Transient Overexpression of adh8a Increases Allyl Alcohol Toxicity in Zebrafish Embryos” (PLoS ONE, 2014)

Experiments:
[1] = test system: gfp, adh8a, adh8b mRNA injected zebrafish embryos; experiment: Zebrafish embryo test after microinjection of gfp, adh8a, adh8b or adh8a/b mRNA; format: in vivo, zebrafish (Danio rerio); conditions: exposure 8-56 h, crystallization dish, strain OBI
Description: (§1) The zebrafish embryo test was performed with few modifications according to a standard operation procedure and a static exposure setup without renewal of exposure solutions (ISO 15088, 2006). The following chemicals were used: Allyl alcohol (CAS 107-18-6, purity 99.8%, Sigma-Aldrich, Deisenhofen, Germany), acrolein (CAS 107-02-8, purity ≥99.0%, Sigma-Aldrich, Deisenhofen, Germany), 4-Nitrophenol (CAS 100-02-7, PESTANAL, analytical standard, Sigma-Aldrich, Deisenhofen, Germany), and ethanol (CAS 64-17-5, purity ≥ 99.5%, Carl Roth, Germany). Stock solutions were prepared for each experiment by adding the appropriate amount for the highest test concentration to the exposure media (294.0 mg/L CaCl2*2H2O, 123.3 mg/L MgSO4*7H2O, 64.7 mg/L NaHCO3, 5.7 mg/L KCl). The solutions were prepared one day before the experiment in 100 ml closed graduated flasks and were stirred over night for approximately 14 h. Lower concentrations were obtained by serial dilutions. Fertilized eggs (embryos at 4–32 cell stage) were transferred by a pipette to 24-well plates (1 embryo per well, 10 wells per exposure concentration, Cellstar Greiner Bio-One, Frickenhausen, Germany) or crystallization glass dishes (80 mm diameter, 10–20 embryos per vial and 30 ml of exposure medium), respectively. Exposures were performed in independent triplicates on different days for 48 h from 2-50 hpf (hours post fertilization), 24–72 hpf, and 72–120 hpf. For the 24–72 hpf exposure, part of the embryos were manually dechorionated using forceps. […] At either 2, 8, 24 or 72 hpf the medium was completely removed and replaced by exposure media containing different concentrations of allyl alcohol (2 ml per well or 30 ml per crystallization dish, respectively). The Henry's law coefficients of the test chemicals (allyl alcohol: 4.99*10^−6, ethanol: 5.62*10^−6, 4-nitrophenol: 4.15*10^−10, acrolein: 1.22*10^−4; atm*m^3/mol) indicate a weak volatility for ethanol, allyl alcohol and acrolein. Therefore, in order to reduce potential evaporation, 24-well plates were covered with an adhesive foil; crystallization dishes were covered with a household plastic wrap and watch glasses. For comparison of the LC50 at different stages and the effect of dechorionation, exposure was performed in 24-well plates. For gene expression analysis and microinjection experiments crystallization dishes were used for exposure.
(§2) After 48 h of exposure referring to 50, 72 or 120 hpf stages, the number of dead embryos was counted. Dead embryos were detected according to the criteria given in the ISO standard; i.e., either coagulation, missing heartbeat, failure to develop somites or a lack of detachment of the tail-bud from the yolk sac were considered as indicators of lethality.
Injection needles were pulled from borosilicate glass capillary tubes with filament (GC100F-10; Warner Instruments, LLC, Hamden, CT) using a Narishige micropipette puller (Tokyo, Japan). Embryos were injected with the Eppendorf FemtoJet (Hamburg, Germany) through the chorion into the yolk compartment at the one-cell stage.
Plasmids with either the cDNA sequence of adh8a or adh8b were purchased from ImaGenes (Berlin, Germany, clone numbers IRBOp991G0334D for adh8a and IRBOp991F02101D for adh8b). The GFP open reading frame was cloned into the pCS2p+ Vector. For synthesis of capped mRNAs, adh8 plasmids were cut with XhoI and pCS2P+GFP was cut with KpnI. 5′ capped mRNA was synthesized with the mMessage Machine SP6 Kit (Life Technologies/Ambion, Darmstadt, Germany) according to the manufacturer's instructions. Injected mRNA concentration was 20–50 ng/µl. Phenol red was added to the RNA samples before injection (0.1% final concentration) in order to allow tracking of successful injections.
The LC50 values ± asymmetric 95% confidence intervals were calculated using the software JMP (SAS, Cary, NC) using the Hill-slope equation for modeling of concentration-response curves: [drawing 1] […]

zebrafish embryos = experiment: Zebrafish embryo test (acute lethality, 48 h static exposure), non-injected embryos; format: in vivo, zebrafish (Danio rerio)
Description: as §1, §2
The LC50 values ± asymmetric 95% confidence intervals were calculated using the software JMP (SAS, Cary, NC) using the Hill-slope equation for modeling of concentration-response curves: [drawing 1]
Min and Max were set to 0 and 100%, respectively. x and y represented the nominal exposure concentration and the survival rate (percentage).

SMILES: O=[N+]([O-])c1ccc(O)cc1 [4-Nitrophenol]
- Slope (Hill-slope concentration-response model) ([1]; adh8a mRNA injected): 6.04
- Slope (Hill-slope concentration-response model) ([1]; adh8a/b mRNA injected): 6.85
- Slope (Hill-slope concentration-response model) ([1]; adh8b mRNA injected): 9.26
- Slope (Hill-slope concentration-response model) ([1]; gfp mRNA injected): 6.52

SMILES: C=CC=O [acrolein]
- Slope (Hill-slope concentration-response model) (zebrafish embryos; exposure 2-50 hpf, with chorion, no mRNA injected, 24-well plates, strain OBI, n = 1): 6.9

SMILES: C=CCO [allyl alcohol, Allyl alcohol]
- Slope (Hill-slope concentration-response model) (zebrafish embryos; exposure 2-50 hpf, with chorion, no mRNA injected, 24-well plates, strain WIK): 3.94
- Slope (Hill-slope concentration-response model) (zebrafish embryos; exposure 8-56 h, with chorion, non-injected control, crystallization dish, strain OBI): 5.72
- Slope (Hill-slope concentration-response model) (zebrafish embryos; exposure 24-72 hpf, with chorion, no mRNA injected, 24-well plates, strain WIK): 3.31
- Slope (Hill-slope concentration-response model) (zebrafish embryos; exposure 24-72 hpf, without chorion, no mRNA injected, 24-well plates, strain WIK): 4.19
- Slope (Hill-slope concentration-response model) (zebrafish embryos; exposure 72-120 hpf, hatched, no mRNA injected, 24-well plates, strain WIK): 6.52
- Slope (Hill-slope concentration-response model) ([1]; adh8a mRNA injected): 1.91
- Slope (Hill-slope concentration-response model) ([1]; adh8a/b mRNA injected): 3.24
- Slope (Hill-slope concentration-response model) ([1]; adh8b mRNA injected): 2.78
- Slope (Hill-slope concentration-response model) ([1]; gfp mRNA injected): 5.51

SMILES: CCO [ethanol]
- Slope (Hill-slope concentration-response model) ([1]; adh8a mRNA injected): 20
- Slope (Hill-slope concentration-response model) ([1]; adh8a/b mRNA injected): 10.1
- Slope (Hill-slope concentration-response model) ([1]; adh8b mRNA injected): 4.9
- Slope (Hill-slope concentration-response model) ([1]; gfp mRNA injected): 12.8
